Measurements taken from PMC6381112.

Chains of the proteins cited; added tags and fusions are not shown.
UniProt Q96AC1: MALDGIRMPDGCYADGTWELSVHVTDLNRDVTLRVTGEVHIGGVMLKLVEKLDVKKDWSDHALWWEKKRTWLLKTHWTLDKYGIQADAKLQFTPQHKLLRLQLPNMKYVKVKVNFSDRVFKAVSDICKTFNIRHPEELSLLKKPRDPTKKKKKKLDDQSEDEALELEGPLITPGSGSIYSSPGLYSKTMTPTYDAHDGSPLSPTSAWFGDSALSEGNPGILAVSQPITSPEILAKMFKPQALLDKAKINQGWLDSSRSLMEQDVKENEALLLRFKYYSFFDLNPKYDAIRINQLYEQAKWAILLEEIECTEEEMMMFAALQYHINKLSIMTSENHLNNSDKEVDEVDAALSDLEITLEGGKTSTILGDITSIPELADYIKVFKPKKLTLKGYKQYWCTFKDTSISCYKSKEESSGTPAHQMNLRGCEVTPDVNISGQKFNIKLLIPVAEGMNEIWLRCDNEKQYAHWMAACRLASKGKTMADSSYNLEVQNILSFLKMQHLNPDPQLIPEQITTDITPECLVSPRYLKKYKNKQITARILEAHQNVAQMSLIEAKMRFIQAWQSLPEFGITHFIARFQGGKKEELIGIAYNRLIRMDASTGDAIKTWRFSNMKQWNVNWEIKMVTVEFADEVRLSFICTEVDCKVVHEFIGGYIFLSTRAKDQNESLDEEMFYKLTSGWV

Each binder was assayed against kindlin-2 (human (endogenous in A549)) (UniProt Q96AC1) (assay: affinity purification with mass spectrometry; A549 cell lysates immunoprecipitated with mouse anti-kindlin-2 antibody (clone 3A3.5) or control mouse IgG; SDS-PAGE, in-gel trypsin digestion, nano LC-MS/MS).

binding | Binder
no binding | pyrroline-5-carboxylate synthase (P5CS) (enzyme, UniProt P54886 1-795) MLSQVYRCGFQPFNQHLLPWVKCTTVFRSHCIQPSVIRHVRSWSNIPFITVPLSRTHGKSFAHRSELKHAKRIVVKLGSAVVTRGDECGLALGRLASIVEQVSVLQNQGREMMLVTSGAVAFGKQRLRHEILLSQSVRQALHSGQNQLKEMAIPVLEARACAAAGQSGLMALYEAMFTQYSICAAQILVTNLDFHDEQKRRNLNGTLHELLRMNIVPIVNTNDAVVPPAEPNSDLQGVNVISVKDNDSLAARLAVEMKTDLLIVLSDVEGLFDSPPGSDDAKLIDIFYPGDQQSVTFGTKSRVGMGGMEAKVKAALWALQGGTSVVIANGTHPKVSGHVITDIVEGKKVGTFFSEVKPAGPTVEQQGEMARSGGRMLATLEPEQRAEIIHHLADLLTDQRDEILLANKKDLEEAEGRLAAPLLKRLSLSTSKLNSLAIGLRQIAASSQDSVGRVLRRTRIAKNLELEQVTVPIGVLLVIFESRPDCLPQVAALAIASGNGLLLKGGKEAAHSNRILHLLTQEALSIHGVKEAVQLVNTREEVEDLCRLDKMIDLIIPRGSSQLVRDIQKAAKGIPVMGHSEGICHMYVDSEASVDKVTRLVRDSKCEYPAACNALETLLIHRDLLRTPLFDQIIDMLRVEQVKIHAGPKFASYLTFSPSEVKSLRTEYGDLELCIEVVDNVQDAIDHIHKYGSSHTDVIVTEDENTAEFFLQHVDSACVFWNASTRFSDGYRFGLGAEVGISTSRIHARGPVGLEGLLTTKWLLRGKDHVVSDFSEHGSLKYLHENLPIPQRNTN
no binding | PYCRL (enzyme, UniProt Q53H96 1-274) MAAAEPSPRRVGFVGAGRMAGAIAQGLIRAGKVEAQHILASAPTDRNLCHFQALGCRTTHSNQEVLQSCLLVIFATKPHVLPAVLAEVAPVVTTEHILVSVAAGVSLSTLEELLPPNTRVLRVLPNLPCVVQEGAIVMARGRHVGSSETKLLQHLLEACGRCEEVPEAYVDIHTGLSGSGVAFVCAFSEALAEGAVKMGMPSSLAHRIAAQTLLGTAKMLLHEGQHPAQLRSDVCTPGGTTIYGLHALEQGGLRAATMSAVEAATCRAKELSRK
binds | PYCR2 (enzyme, UniProt Q96C36 1-320) MSVGFIGAGQLAYALARGFTAAGILSAHKIIASSPEMNLPTVSALRKMGVNLTRSNKETVKHSDVLFLAVKPHIIPFILDEIGADVQARHIVVSCAAGVTISSVEKKLMAFQPAPKVIRCMTNTPVVVQEGATVYATGTHALVEDGQLLEQLMSSVGFCTEVEEDLIDAVTGLSGSGPAYAFMALDALADGGVKMGLPRRLAIQLGAQALLGAAKMLLDSEQHPCQLKDNVCSPGGATIHALHFLESGGFRSLLINAVEASCIRTRELQSMADQEKISPAALKKTLLDRVKLESPTVSTLTPSSPGKLLTRSLALGGKKD

Results are given in words; binding and its absence hold for the method and conditions named. Binding seen in cells or lysates may run through a third protein. Here binding means that the protein was enriched with, or labelled near, the bait; the list need not be complete. No binding means not detected with the bait.
